Test results as given in PMC5035144.
These are yes or no findings as the source states them, for the method shown. Binding seen in cells or lysates may run through a third protein.

Biological target: Flag-Rbbp5, Q15291
Experiment: co-IP; Flag-tagged proteins expressed in 293T cells and immunoprecipitated with anti-Flag antibody; endogenous partners detected by western blot
Conditions: remark: other sources report otherwise

B1: Pask, endogenous in HEK293T cells, Q96RG2 1-1323 (enzyme)
chain: MEDGGLTAFEEDQRCLSQSLPLPVSAEGPAAQTTAEPSRSFSSAHRHLSRRNGLSRLCQSRTALSEDRWSSYCLSSLAAQNICTSKLHCPAAPEHTDPSEPRGSVSCCSLLRGLSSGWSSPLLPAPVCNPNKAIFTVDAKTTEILVANDKACGLLGYSSQDLIGQKLTQFFLRSDSDVVEALSEEHMEADGHAAVVFGTVVDIISRSGEKIPVSVWMKRMRQERRLCCVVVLEPVERVSTWVAFQSDGTVTSCDSLFAHLHGYVSGEDVAGQHITDLIPSVQLPPSGQHIPKNLKIQRSVGRARDGTTFPLSLKLKSQPSSEEATTGEAAPVSGYRASVWVFCTISGLITLLPDGTIHGINHSFALTLFGYGKTELLGKNITFLIPGFYSYMDLAYNSSLQLPDLASCLDVGNESGCGERTLDPWQGQDPAEGGQDPRINVVLAGGHVVPRDEIRKLMESQDIFTGTQTELIAGGQLLSCLSPQPAPGVDNVPEGSLPVHGEQALPKDQQITALGREEPVAIESPGQDLLGESRSEPVDVKPFASCEDSEAPVPAEDGGSDAGMCGLCQKAQLERMGVSGPSGSDLWAGAAVAKPQAKGQLAGGSLLMHCPCYGSEWGLWWRSQDLAPSPSGMAGLSFGTPTLDEPWLGVENDREELQTCLIKEQLSQLSLAGALDVPHAELVPTECQAVTAPVSSCDLGGRDLCGGCTGSSSACYALATDLPGGLEAVEAQEVDVNSFSWNLKELFFSDQTDQTSSNCSCATSELRETPSSLAVGSDPDVGSLQEQGSCVLDDRELLLLTGTCVDLGQGRRFRESCVGHDPTEPLEVCLVSSEHYAASDRESPGHVPSTLDAGPEDTCPSAEEPRLNVQVTSTPVIVMRGAAGLQREIQEGAYSGSCYHRDGLRLSIQFEVRRVELQGPTPLFCCWLVKDLLHSQRDSAARTRLFLASLPGSTHSTAAELTGPSLVEVLRARPWFEEPPKAVELEGLAACEGEYSQKYSTMSPLGSGAFGFVWTAVDKEKNKEVVVKFIKKEKVLEDCWIEDPKLGKVTLEIAILSRVEHANIIKVLDIFENQGFFQLVMEKHGSGLDLFAFIDRHPRLDEPLASYIFRQLVSAVGYLRLKDIIHRDIKDENIVIAEDFTIKLIDFGSAAYLERGKLFYTFCGTIEYCAPEVLMGNPYRGPELEMWSLGVTLYTLVFEENPFCELEETVEAAIHPPYLVSKELMSLVSGLLQPVPERRTTLEKLVTDPWVTQPVNLADYTWEEVFRVNKPESGVLSAASLEMGNRSLSDVAQAQELCGGPVPGEAPNGQGCLHPGDPRLLTS
With B1 the binding was “no binding”.
